From PubChem BioAssay AID2417 (National Center for Advancing Translational Sciences (NCATS), 2010)
The campaign covered roughly 140,000 compounds. About 4,300 (3.1%) were called active. The shares of active, inactive and inconclusive entries below differ from those in the screen.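 How the source made its calls: active means readout at or below -70, meaning at least 70% loss of cells showing the perinucleolar compartment, a nuclear body marking cancer cells; inconclusive means readout between -30 and a set limit; inactive means the rest.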

Test: High Content Assay for Compounds that inhibit the Assembly of the Perinucleolar Compartment;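 further: plate controls were DMSO wells for no effect and camptothecin positive control wells for full effect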
Conditions: PC3M PTB-GFP, PNC prevalence imaging, 16 h; at 10 µM; hits give low values
Procedure, shortened: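 Read-out is percentage of cells bearing a perinucleolar compartment, from automated 20x imaging of fixed, Hoechst-stained PC3M PTB-GFP cells. Cells were seeded 4 h, then exposed 16 h to compound (23 nl of library stock) in duplicate plates.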

SMILES	activity change (PNC), negative = inhibition
C=CCN(CC=C)C(=O)C1CCC(C(=O)N(CC=C)CC=C)CC1 (stereo unspecified)	active: -88.5%
O=C(COc1cccc2cccnc12)N/N=C1\SCC(=O)N1Cc1ccco1	inconclusive: -56.9%
Nc1ncnc(Nc2cc(Cl)cc(Cl)c2)c1[N+](=O)[O-]	inconclusive: -38.8%
CCOc1ccc(-c2cc(N)n(S(=O)(=O)c3ccc(OC)c(OC)c3)n2)cc1	inconclusive: -36.6%
CCc1cc2c(=O)c(-c3cnn(-c4ccccc4)c3)c(C)oc2cc1OCC(=O)Nc1ccc(F)c(F)c1	inconclusive: -56.5%
CCCCCOC(=O)c1ccc(N2C(=O)C3C4C=CC(C4)C3C2=O)cc1 (stereo unspecified)	inconclusive: -40.7%
O=C(NCC1CCCO1)c1ccc(S(=O)(=O)N2CCC(c3nc4ccc(Cl)cc4[nH]3)CC2)cc1 (stereo unspecified)	active: -100%
COc1ccc(Br)cc1C1CC(=O)N2CN(C)CSC2=C1C#N (stereo unspecified)	inactive: 49.6%
CCC(CC)NC(=O)CSc1nnc(-c2ccc(OC)cc2)n1C(C)C	inconclusive: -36.4%
COc1ccc(CCN=C(N)NS(=O)(=O)c2ccccc2)cc1	inactive: 6.81%
O=C(CCc1c[nH]c2ccccc12)NCC1CCCO1 (stereo unspecified)	inconclusive: -57.7%
CCOC(=O)c1oc2ccccc2c1CSc1nnnn1-c1ccc(C)cc1	inconclusive: -34%
c1ccn2c(CNc3ncnc4sccc34)nnc2c1	inconclusive: -31.5%
Cc1ccc2c(c1)nnn2C1CCN(C(=O)NC23CC4CC(CC(C4)C2)C3)CC1	inactive: 27.2%
COC(=O)CC1(c2ccccc2)C(=O)c2ccccc2C1=O	inactive: 9.88%
O=C(Cn1nc(C(F)(F)F)c2c1CCC2)NCc1ccc(Cl)cc1	inactive: -14.2%
COc1ccc(C2C=C(C34CC5CC(CC(C5)C3)C4)NC(=S)N2)cc1OC (stereo unspecified)	inactive: -26.4%
CC(Sc1nnnn1C)C(=O)Nc1ccc(Oc2ccccc2)cc1 (stereo unspecified)	inactive: 38.3%
COc1cccc(/C=N/N2C(=O)CSC2=S)c1O	inconclusive: -38.5%
Cc1nc(NCCc2ccc(S(N)(=O)=O)cc2)c2c(C)c(C)sc2n1	inconclusive: -30.7%
Cn1c(=O)oc2cc(S(=O)(=O)N3CCCC(C(=O)Nc4ccc5c(c4)OCCO5)C3)ccc21 (stereo unspecified)	inconclusive: -41.5%
CCOC(=O)c1c(-c2ccc(C)cc2C)csc1NC(=O)CSc1nnnn1C	active: -85.2%
CCN1CCN(S(=O)(=O)c2cc(OC)c(Cl)cc2OC)CC1	inconclusive: -38.5%

SMILES	activity change (PNC), negative = inhibition
Cc1cc(C(=O)Nc2ccc3c(c2)OCO3)cs1	inconclusive: -40.3%
CC(=O)n1cc(/C=C2/N=C(c3ccccc3)OC2=O)c2ccccc21	inconclusive: -35.7%
CCC(=O)Nc1sc2c(c1C#N)CCCCC2	inconclusive: -42.1%
Cc1n[nH]c(C)c1Cc1ccc(C(=O)O)cc1	inconclusive: -36.2%
Cc1ccc(OCC(=O)Nc2sc3c(c2C#N)CCC3)cc1	inconclusive: -48.8%
O=C(CCCCCN1C(=O)CCC1=O)NCc1ccccc1	inconclusive: -62.3%
COC(=O)c1sc2nc(-c3ccccc3)c3c(c2c1N)CCCC3	inconclusive: -46.2%
Cc1ccc(S(=O)(=O)N(C)CCCC(=O)N2CCN(C=O)CC2)cc1	inconclusive: -34%
Cc1ccc(S(=O)(=O)N(C)c2ccc(OCC(=O)Nc3nc(-c4ccccc4)cs3)cc2)cc1	inconclusive: -39.2%
C=CCc1cccc(CNc2c(C)n(C)n(-c3ccccc3)c2=O)c1O	inconclusive: -56.2%
COC(=O)C1CCCN1S(=O)(=O)c1ccc2ccccc2c1 (stereo unspecified)	inconclusive: -49.4%
COc1ccc(-c2nc3c(c(=O)[nH]c(=O)n3Cc3ccccc3)n2C)cc1	inactive: -8.28%
CN(Cc1cnn(C)c1)C(=O)c1sc2cccc(Cl)c2c1Cl	inactive: 9.65%
Cc1cc(-c2cccc([N+](=O)[O-])c2)nc2ccccc12	inconclusive: -39.8%
O=C(COC(=O)c1n[nH]c(=O)c2ccccc12)c1ccc(Cl)cc1	inconclusive: -47.4%
O=C(c1ccc(Cl)c([N+](=O)[O-])c1)N(Cc1cccc(Cl)c1)C1CCS(=O)(=O)C1 (stereo unspecified)	inactive: 38.5%
Cc1cc(C)c2[nH]c(=O)c(C(c3nnnn3CC3CCCO3)N3CCC(C)CC3)cc2c1 (stereo unspecified)	inconclusive: -49.3%
CCOc1ccc2c(c1)c(N=O)c(O)n2C	inconclusive: -42.1%
CCOC(=O)/C(C#N)=C(\N)C(C)C(=O)Nc1ccccn1 (stereo unspecified)	inconclusive: -49.3%
CCC(C)[C@H](NC(=O)NCc1cccc(OC)c1)C(=O)OC (stereo partly specified)	inconclusive: -53.4%
CCOC(=O)C1CCN(C(=O)Cn2cc(C(=O)C3CC3)c3ccccc32)CC1	inconclusive: -56.6%
FC(F)(F)c1cc(C(F)(F)F)c2ccc(Oc3ccccc3)nc2n1	inconclusive: -61.2%
CC(C)CC(=O)NC(=S)N1CCN(c2ccc([N+](=O)[O-])cc2Cl)CC1	inactive: -29.1%

SMILES	activity change (PNC), negative = inhibition
Cc1ccc(S(=O)(=O)N(CC(=O)NC2CCCC2)c2cccc(C)c2)cc1	inactive: 5.38%
Cc1nc2ccccn2c1C(=O)/C=C/c1ccc(F)cc1	active: -94.8%
CCOC(=O)C(O)(CC(=O)c1ccc(OC)cc1)C(F)(F)F (stereo unspecified)	active: -81%
CCCN=C1N/C(=C\c2ccco2)C(=O)N1c1ccccc1	inconclusive: -39.3%
CCc1ccccc1N(CC(=O)N1CCN(c2ccc(F)cc2)CC1)S(C)(=O)=O	inconclusive: -31.5%
Cc1cccc(-c2nnc(SCc3cc(=O)[nH]c4ccccc34)n2C)c1	inconclusive: -62.9%
CC(=O)N1CCN(S(=O)(=O)c2cccc(C(=O)Nc3nc4ccccc4[nH]3)c2)CC1	inconclusive: -30.5%
c1ccc(Cn2nnnc2CN2CCOCC2)cc1	inconclusive: -35.8%
O=C1/C(=C/c2cccnc2)SC(=S)N1C1CCS(=O)(=O)C1 (stereo unspecified)	inconclusive: -43.1%
Cc1ccc(S(=O)(=O)NC(N)=NCCc2ccccc2)cc1C	inactive: -23.3%
Cc1cc(C(=O)NCc2cccnc2)no1	inactive: 45%
CN(C)c1ccc(NC(=O)CN2CCC(C(=O)c3ccc(F)cc3)CC2)cc1	inconclusive: -74.8%
Cc1ccc(SCC(=O)c2cc(C)c(OC(=S)N(C)C)c(C)c2)cc1	inconclusive: -36.3%
COc1cc(N)ccc1NC(=O)c1cccs1	inconclusive: -62.1%
CCn1nc(NC(=O)c2ccco2)c2cc3ccccc3nc21	inconclusive: -52.2%
O=C(CC1C(=O)NCCN1C(=O)Nc1ccccc1)Nc1ccc2c(c1)OCCO2 (stereo unspecified)	inconclusive: -49.9%
Cn1c(=O)[nH]c(=O)c2c1nc(N1CCCCC1)n2CCCSc1nnnn1-c1ccccc1	inconclusive: -67.5%
CC(=O)Nc1sc(N/N=C\c2ccco2)nc1-c1cccs1	inconclusive: -72.4%
CCOC(=O)c1cc(C(=O)NN)c(C)nc1C	inconclusive: -65.3%
O=C(N/N=C/c1cccnc1)c1ccc(NC(=O)C(c2ccccc2)c2ccccc2)cc1	inconclusive: -79.6%
COc1ccccc1CNC(=O)Cn1cccc1	inconclusive: -30%
CC1(C)CNC(=O)c2sc(N3CCCCC3)nc2C1	inconclusive: -40%
Cc1cccc(NC(=S)N/N=C2/CCCCc3ccccc32)c1	inconclusive: -31.7%

SMILES	activity change (PNC), negative = inhibition
CCOC(=O)C(C)Sc1ncnc2c1c(-c1ccccc1)cn2-c1ccc(OC)cc1 (stereo unspecified)	inconclusive: -39.8%
Cc1ccc(-c2nn3c(C)nnc3c3ccccc23)cc1S(=O)(=O)NC(C)c1ccccc1 (stereo unspecified)	inconclusive: -43%
Cc1ccc(S(=O)(=O)N2CCOCC2)cc1NC(=O)CSc1nccn1C	inconclusive: -43.4%
C=CCn1c(SCC(=O)NCc2ccco2)nc2sc3c(c2c1=O)CCCC3	inconclusive: -69%
N#Cc1nc(COc2ccccc2)oc1N1CCN(c2cccc(Cl)c2)CC1	inconclusive: -58.8%
Cc1onc(-c2ccccc2)c1C(=O)Nc1sc2c(c1C#N)CCC(C)C2 (stereo unspecified)	inactive: 11.9%
O=C(CSc1nnnn1-c1ccc(O)cc1)Nc1cccc(S(=O)(=O)N2CCCC2)c1	inactive: -21.1%
CCOC(=O)Cn1c(SC)nc2sc3c(c2c1=O)CC(C)(C)OC3	inconclusive: -33.7%
O=C(NCc1cccs1)c1ccccc1F	inactive: 22.8%
Cc1ccc(NCCC(=O)c2ccc(Br)cc2)cc1	inactive: -4.31%
COc1cccc(-n2c(SCC(=O)Nc3nccs3)nnc2-c2ccoc2C)c1	active: -100%
CCCCN1C(=O)CCC(C(=O)O)C1c1ccccc1 (stereo unspecified)	active: -102%
CCc1nc(N)c(C#N)c(-c2ccc(F)cc2)c1C	inconclusive: -49.4%
COc1ccccc1-n1cnnc1SCC(=O)N1CC(=O)Nc2ccccc21	inconclusive: -41.2%
CCCCSC1=C(C#N)C(c2ccccc2C)CC(=O)N1 (stereo unspecified)	inactive: 5.21%
COc1ccc(NC2c3ccccc3C(=O)N2c2cccnc2)cc1Cl (stereo unspecified)	inconclusive: -62.8%
CC1=C(C)/C(=N\OS(=O)(=O)c2ccc(C)cc2)C=CC1=O	inconclusive: -73.3%
Nc1nnc(SCc2cccnc2)s1	inconclusive: -38.1%
COc1ccc(CN(Cc2ccncc2)C(=O)CCC(=O)O)cc1	inconclusive: -43.5%
CC1(C)C(C=C(Cl)Cl)C1C(=O)N(Cc1ccc(Cl)cc1)C1CCS(=O)(=O)C1 (stereo unspecified)	inactive: 32.1%
CNC(=O)c1ccccc1S(=O)(=O)c1ccccc1C#N	inactive: 12%
Cc1c(C2N3CC4(C)CN2CC(C)(C3)C4=O)c2ccccc2n1C (stereo unspecified)	inconclusive: -41.7%

Taken from above:
COc1ccc(NC2c3ccccc3C(=O)N2c2cccnc2)cc1Cl (stereo unspecified) – activity change (PNC), negative = inhibition: inconclusive: -62.8%
COc1cccc(/C=N/N2C(=O)CSC2=S)c1O – activity change (PNC), negative = inhibition: inconclusive: -38.5%
CCc1nc(N)c(C#N)c(-c2ccc(F)cc2)c1C – activity change (PNC), negative = inhibition: inconclusive: -49.4%
COc1ccc(-c2nc3c(c(=O)[nH]c(=O)n3Cc3ccccc3)n2C)cc1 – activity change (PNC), negative = inhibition: inactive: -8.28%
CCOC(=O)c1cc(C(=O)NN)c(C)nc1C – activity change (PNC), negative = inhibition: inconclusive: -65.3%
